Results are given in words; binding and its absence hold for the method and conditions named. In cells and extracts the contact can be indirect. Here binding means that the protein was enriched with, or labelled near, the bait; the list need not be complete. For part of these data: No binding means not detected with the bait. For part of these data: Sequences can lack the tags named with a protein.
T1: FLAG-ZRF1 (human) (UniProt Q99543)
T1 sequence: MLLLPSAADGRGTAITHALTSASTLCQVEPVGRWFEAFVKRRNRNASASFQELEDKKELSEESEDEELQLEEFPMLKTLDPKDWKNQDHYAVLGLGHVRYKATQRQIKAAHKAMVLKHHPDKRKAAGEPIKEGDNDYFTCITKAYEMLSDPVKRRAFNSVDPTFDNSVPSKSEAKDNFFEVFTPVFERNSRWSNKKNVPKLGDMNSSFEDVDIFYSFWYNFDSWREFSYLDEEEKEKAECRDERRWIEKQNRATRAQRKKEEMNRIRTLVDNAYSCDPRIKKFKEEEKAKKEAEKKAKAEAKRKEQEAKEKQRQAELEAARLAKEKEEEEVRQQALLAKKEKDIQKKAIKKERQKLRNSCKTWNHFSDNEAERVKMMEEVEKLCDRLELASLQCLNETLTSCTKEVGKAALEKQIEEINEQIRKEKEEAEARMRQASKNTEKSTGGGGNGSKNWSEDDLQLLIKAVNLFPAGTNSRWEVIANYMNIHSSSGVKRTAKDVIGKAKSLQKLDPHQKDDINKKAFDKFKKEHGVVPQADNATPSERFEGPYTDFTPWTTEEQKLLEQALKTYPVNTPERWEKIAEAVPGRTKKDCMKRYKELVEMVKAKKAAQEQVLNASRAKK

Protein sequences, listed by entry. Tags and fused reporters are not part of them. Lines headed by an entry give the natural chain unless they say otherwise; changes in a name come on top.
UniProt Q9VP77: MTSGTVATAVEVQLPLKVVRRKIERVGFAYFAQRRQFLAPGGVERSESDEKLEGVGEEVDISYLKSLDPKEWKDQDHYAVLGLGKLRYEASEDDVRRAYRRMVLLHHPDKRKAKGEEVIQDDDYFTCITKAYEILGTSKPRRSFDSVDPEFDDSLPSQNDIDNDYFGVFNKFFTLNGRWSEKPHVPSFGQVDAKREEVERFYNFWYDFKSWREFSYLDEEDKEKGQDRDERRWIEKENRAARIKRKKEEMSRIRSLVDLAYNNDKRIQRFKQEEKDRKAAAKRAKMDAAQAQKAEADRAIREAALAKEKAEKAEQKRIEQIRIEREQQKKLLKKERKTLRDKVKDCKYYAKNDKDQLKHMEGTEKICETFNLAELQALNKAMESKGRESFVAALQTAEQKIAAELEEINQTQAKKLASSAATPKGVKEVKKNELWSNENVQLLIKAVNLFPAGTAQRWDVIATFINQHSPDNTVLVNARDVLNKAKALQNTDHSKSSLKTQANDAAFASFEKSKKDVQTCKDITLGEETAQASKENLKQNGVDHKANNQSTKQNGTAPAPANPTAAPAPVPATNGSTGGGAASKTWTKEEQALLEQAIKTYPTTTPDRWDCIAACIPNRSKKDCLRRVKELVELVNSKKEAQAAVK
UniProt P17844: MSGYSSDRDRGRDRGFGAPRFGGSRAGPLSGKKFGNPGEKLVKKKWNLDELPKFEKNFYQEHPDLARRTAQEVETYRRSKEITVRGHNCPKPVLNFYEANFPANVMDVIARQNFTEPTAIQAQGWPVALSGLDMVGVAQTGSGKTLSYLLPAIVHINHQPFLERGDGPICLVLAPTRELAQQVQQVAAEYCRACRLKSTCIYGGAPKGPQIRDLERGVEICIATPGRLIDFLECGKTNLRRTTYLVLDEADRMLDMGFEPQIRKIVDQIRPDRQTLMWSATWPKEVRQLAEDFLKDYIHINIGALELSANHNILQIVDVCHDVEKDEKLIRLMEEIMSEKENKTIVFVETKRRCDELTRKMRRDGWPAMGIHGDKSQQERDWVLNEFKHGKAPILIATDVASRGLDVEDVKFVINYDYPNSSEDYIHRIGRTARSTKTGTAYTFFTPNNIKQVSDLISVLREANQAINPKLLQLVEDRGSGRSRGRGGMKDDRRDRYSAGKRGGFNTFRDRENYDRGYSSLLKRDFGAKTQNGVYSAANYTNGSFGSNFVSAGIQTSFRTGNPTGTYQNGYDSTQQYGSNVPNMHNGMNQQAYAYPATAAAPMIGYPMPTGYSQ
UniProt Q92841: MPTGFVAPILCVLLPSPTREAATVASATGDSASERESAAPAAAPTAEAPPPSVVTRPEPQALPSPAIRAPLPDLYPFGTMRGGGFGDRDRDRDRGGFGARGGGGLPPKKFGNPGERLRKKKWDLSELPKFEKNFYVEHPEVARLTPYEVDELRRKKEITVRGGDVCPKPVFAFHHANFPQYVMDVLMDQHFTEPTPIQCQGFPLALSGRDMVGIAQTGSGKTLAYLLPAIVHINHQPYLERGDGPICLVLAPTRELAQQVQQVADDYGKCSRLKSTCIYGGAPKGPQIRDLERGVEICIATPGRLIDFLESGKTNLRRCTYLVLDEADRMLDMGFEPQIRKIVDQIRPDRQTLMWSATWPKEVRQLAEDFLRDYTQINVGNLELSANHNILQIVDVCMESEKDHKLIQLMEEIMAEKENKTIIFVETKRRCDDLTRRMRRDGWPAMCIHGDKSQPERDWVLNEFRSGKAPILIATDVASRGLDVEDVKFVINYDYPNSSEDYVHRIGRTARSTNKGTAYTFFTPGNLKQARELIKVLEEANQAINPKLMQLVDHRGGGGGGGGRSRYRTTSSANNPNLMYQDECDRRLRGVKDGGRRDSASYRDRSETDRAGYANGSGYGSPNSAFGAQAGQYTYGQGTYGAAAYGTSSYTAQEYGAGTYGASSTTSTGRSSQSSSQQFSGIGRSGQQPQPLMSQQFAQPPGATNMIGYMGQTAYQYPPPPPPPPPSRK
UniProt Q9NR30: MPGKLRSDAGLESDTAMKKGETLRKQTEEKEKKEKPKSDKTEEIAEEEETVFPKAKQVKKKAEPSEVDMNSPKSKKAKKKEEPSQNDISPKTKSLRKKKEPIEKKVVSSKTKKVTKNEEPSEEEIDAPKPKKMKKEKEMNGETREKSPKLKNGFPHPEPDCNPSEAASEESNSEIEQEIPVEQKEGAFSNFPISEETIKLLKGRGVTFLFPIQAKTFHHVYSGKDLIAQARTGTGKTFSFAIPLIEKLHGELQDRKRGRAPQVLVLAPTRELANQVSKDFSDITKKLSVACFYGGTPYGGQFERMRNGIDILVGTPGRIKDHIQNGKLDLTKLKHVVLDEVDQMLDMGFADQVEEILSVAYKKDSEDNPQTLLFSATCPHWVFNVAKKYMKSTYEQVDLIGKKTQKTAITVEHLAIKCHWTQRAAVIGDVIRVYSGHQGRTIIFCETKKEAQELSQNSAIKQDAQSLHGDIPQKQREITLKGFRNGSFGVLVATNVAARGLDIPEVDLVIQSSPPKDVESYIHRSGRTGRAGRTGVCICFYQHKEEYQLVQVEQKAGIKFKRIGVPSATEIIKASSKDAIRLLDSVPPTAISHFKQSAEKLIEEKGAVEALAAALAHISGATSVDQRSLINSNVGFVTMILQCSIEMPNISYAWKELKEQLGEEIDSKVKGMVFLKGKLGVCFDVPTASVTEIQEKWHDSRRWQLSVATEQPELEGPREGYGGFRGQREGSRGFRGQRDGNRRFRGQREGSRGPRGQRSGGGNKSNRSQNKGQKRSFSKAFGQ
UniProt P51114: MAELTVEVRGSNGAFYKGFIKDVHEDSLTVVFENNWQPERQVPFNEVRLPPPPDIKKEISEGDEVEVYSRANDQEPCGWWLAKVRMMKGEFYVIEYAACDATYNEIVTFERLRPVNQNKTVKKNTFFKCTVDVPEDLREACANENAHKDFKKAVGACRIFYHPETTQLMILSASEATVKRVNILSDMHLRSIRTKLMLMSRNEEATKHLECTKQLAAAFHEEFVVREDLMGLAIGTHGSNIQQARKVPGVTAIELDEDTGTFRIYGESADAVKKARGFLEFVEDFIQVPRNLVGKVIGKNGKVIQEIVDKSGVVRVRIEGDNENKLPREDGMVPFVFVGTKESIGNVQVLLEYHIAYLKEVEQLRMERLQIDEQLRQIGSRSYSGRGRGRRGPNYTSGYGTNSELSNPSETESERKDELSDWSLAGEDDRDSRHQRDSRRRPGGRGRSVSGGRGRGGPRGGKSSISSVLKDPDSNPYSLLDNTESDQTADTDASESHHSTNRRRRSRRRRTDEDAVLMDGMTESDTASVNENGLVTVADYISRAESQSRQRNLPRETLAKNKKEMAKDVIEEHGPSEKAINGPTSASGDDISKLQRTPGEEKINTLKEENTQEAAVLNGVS
UniProt P51116: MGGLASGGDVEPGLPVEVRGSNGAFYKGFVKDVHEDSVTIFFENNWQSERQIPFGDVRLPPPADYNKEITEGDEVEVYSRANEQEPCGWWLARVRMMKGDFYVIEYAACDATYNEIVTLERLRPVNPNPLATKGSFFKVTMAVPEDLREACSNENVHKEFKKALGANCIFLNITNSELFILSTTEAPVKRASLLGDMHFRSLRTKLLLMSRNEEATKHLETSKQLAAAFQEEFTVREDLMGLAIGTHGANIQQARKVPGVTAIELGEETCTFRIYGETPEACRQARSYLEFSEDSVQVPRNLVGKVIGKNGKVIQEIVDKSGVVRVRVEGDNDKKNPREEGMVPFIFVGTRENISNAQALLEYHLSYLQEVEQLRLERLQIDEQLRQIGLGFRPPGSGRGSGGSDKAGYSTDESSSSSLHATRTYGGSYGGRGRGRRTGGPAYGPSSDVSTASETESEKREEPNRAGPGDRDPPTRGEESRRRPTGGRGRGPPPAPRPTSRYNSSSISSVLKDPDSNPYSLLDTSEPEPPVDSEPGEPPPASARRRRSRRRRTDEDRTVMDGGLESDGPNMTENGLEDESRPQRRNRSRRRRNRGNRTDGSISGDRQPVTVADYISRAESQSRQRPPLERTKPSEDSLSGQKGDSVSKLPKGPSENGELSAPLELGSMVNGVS
UniProt Q9H7E2: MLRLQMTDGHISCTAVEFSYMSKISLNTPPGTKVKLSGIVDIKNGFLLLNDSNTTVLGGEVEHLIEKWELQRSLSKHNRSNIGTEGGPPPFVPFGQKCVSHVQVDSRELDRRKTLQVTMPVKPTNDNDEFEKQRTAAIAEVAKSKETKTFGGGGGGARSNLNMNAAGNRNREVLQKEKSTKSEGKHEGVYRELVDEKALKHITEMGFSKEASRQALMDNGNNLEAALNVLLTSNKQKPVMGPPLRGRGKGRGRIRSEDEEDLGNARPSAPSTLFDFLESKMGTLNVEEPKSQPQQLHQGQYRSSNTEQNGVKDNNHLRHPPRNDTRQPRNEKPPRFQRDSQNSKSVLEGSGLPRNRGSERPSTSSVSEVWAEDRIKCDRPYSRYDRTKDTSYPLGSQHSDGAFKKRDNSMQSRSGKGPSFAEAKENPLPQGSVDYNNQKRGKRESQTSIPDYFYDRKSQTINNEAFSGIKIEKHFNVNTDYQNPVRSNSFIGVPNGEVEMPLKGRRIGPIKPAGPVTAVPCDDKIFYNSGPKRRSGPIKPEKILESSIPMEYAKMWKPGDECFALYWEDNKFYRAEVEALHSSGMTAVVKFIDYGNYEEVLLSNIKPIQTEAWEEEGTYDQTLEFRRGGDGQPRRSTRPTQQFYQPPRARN
UniProt Q9VUH8: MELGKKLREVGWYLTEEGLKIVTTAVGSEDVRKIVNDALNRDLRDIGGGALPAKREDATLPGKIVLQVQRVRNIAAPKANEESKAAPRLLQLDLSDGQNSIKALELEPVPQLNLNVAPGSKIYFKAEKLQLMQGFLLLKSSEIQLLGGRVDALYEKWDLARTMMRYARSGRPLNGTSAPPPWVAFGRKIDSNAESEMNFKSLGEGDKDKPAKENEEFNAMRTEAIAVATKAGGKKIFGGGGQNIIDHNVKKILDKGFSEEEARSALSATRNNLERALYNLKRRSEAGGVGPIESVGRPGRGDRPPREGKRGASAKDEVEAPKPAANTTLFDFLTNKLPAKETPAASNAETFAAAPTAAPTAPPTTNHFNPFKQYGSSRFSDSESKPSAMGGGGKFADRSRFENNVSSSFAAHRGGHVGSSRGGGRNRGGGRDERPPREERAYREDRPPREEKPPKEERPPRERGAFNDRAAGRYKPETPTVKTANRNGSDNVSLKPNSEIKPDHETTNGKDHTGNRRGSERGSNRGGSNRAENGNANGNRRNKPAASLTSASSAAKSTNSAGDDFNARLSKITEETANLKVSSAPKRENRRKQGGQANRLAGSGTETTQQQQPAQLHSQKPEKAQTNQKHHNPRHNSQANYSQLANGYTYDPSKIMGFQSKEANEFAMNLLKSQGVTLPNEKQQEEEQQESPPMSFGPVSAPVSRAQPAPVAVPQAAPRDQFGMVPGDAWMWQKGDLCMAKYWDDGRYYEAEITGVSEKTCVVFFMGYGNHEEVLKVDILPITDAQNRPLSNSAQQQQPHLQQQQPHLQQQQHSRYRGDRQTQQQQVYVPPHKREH
UniProt Q9V426: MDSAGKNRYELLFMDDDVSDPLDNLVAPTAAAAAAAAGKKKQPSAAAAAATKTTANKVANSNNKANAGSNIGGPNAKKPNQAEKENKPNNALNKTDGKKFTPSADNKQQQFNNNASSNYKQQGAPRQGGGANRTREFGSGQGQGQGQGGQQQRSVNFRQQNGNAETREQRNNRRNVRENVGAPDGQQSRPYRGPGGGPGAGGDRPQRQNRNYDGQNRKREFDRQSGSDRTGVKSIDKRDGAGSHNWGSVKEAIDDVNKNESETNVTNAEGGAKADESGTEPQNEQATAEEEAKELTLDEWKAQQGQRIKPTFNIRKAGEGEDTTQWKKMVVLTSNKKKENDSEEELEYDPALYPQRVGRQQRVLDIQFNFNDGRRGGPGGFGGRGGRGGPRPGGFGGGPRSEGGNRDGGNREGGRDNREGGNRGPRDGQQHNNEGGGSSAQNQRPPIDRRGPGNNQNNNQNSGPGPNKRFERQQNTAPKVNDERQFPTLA

T2: ZRF1-GFP (human) (UniProt Q99543)
T2 sequence: T1 sequence

B1: AGO2 (endogenous) (protein, UniProt Q9VUQ5 1-1214)
chain: MGKKDKNKKGGQDSAAAPQPQQQQKQQQQRQQQPQQLQQPQQLQQPQQLQQPQQQQQQQPHQQQQQSSRQQPSTSSGGSRASGFQQGGQQQKSQDAEGWTAQKKQGKQQVQGWTKQGQQGGHQQGRQGQDGGYQQRPPGQQQGGHQQGRQGQEGGYQQRPPGQQQGGHQQGRQGQEGGYQQRPSGQQQGGHQQGRQGQEGGYQQRPPGQQQGGHQQGRQGQEGGYQQRPSGQQQGGHQQGRQGQEGGYQQRPPGQQQGGHQQGRQGQEGGYQQRPPGQQQGGHEQGRQGQEGGYQQRPSGQQQGGHQQGRQGQEGGYQQRPSGQQQGGHQQGRQGQEGGYQQRPSGQQQGGHQQGRQGQEGGYQQRPPGQQPNQTQSQGQYQSRGPPQQQQAAPLPLPPQPAGSIKRGTIGKPGQVGINYLDLDLSKMPSVAYHYDVKIMPERPKKFYRQAFEQFRVDQLGGAVLAYDGKASCYSVDKLPLNSQNPEVTVTDRNGRTLRYTIEIKETGDSTIDLKSLTTYMNDRIFDKPMRAMQCVEVVLASPCHNKAIRVGRSFFKMSDPNNRHELDDGYEALVGLYQAFMLGDRPFLNVDISHKSFPISMPMIEYLERFSLKAKINNTTNLDYSRRFLEPFLRGINVVYTPPQSFQSAPRVYRVNGLSRAPASSETFEHDGKKVTIASYFHSRNYPLKFPQLHCLNVGSSIKSILLPIELCSIEEGQALNRKDGATQVANMIKYAATSTNVRKRKIMNLLQYFQHNLDPTISRFGIRIANDFIVVSTRVLSPPQVEYHSKRFTMVKNGSWRMDGMKFLEPKPKAHKCAVLYCDPRSGRKMNYTQLNDFGNLIISQGKAVNISLDSDVTYRPFTDDERSLDTIFADLKRSQHDLAIVIIPQFRISYDTIKQKAELQHGILTQCIKQFTVERKCNNQTIGNILLKINSKLNGINHKIKDDPRLPMMKNTMYIGADVTHPSPDQREIPSVVGVAASHDPYGASYNMQYRLQRGALEEIEDMFSITLEHLRVYKEYRNAYPDHIIYYRDGVSDGQFPKIKNEELRCIKQACDKVGCKPKICCVIVVKRHHTRFFPSGDVTTSNKFNNVDPGTVVDRTIVHPNEMQFFMVSHQAIQGTAKPTRYNVIENTGNLDIDLLQQLTYNLCHMFPRCNRSVSYPAPAYLAHLVAARGRVYLTGTNRFLDLKKEYAKRTIVPEFMKKNPMYFV

Experiments:
FLAG-ZRF1 (human) = molecular target: T1, FLAG-ZRF1 (human); test: affinity purification with mass spectrometry; HEK293T cells transfected with FLAG-ZRF1 or ZRF1-GFP (controls FLAG-mCherry, mCherry-GFP); IP with α-FLAG or α-GFP agarose/magnetic beads, mild detergent conditions
ZRF1-GFP (human) = molecular target: T2, ZRF1-GFP (human); test: as above
GFP-Zrf1 (Drosophila) = GFP-Zrf1 (Drosophila) (UniProt Q9VP77); test: affinity purification with mass spectrometry; GFP-Zrf1 immunoprecipitated with GFP-trap beads from transfected S2R+ cells under mild detergent conditions (NP40); GFP alone as control; three biological replicates

Molecule | binding (FLAG-ZRF1 (human)) | binding (ZRF1-GFP (human)) | binding (GFP-Zrf1 (Drosophila))
DDX5 (endogenous) (from UniProt P17844 1-614) | binds | binds | 
DDX17 (endogenous) (from UniProt Q92841 1-729) | binds | binds | 
DDX21 (endogenous) (from UniProt Q9NR30 1-783) | binds | binds | 
FXR1 (endogenous) (from UniProt P51114 1-621) | binds | binds | 
FXR2 (endogenous) (from UniProt P51116 1-673) | binds | binds | 
TDRD3 (endogenous) (from UniProt Q9H7E2 1-651) | no binding | no binding | 
Tdrd3 (endogenous) (from UniProt Q9VUH8) |  |  | binds
Vig (endogenous) (from UniProt Q9V426) |  |  | binds
B1 |  |  | binds
